Data reported in doi:10.1101/264788.

By UniProt entry, the sequences of proteins in these tests, tags left out. Residues count along the entry.
UniProt P02545, residues 1-646: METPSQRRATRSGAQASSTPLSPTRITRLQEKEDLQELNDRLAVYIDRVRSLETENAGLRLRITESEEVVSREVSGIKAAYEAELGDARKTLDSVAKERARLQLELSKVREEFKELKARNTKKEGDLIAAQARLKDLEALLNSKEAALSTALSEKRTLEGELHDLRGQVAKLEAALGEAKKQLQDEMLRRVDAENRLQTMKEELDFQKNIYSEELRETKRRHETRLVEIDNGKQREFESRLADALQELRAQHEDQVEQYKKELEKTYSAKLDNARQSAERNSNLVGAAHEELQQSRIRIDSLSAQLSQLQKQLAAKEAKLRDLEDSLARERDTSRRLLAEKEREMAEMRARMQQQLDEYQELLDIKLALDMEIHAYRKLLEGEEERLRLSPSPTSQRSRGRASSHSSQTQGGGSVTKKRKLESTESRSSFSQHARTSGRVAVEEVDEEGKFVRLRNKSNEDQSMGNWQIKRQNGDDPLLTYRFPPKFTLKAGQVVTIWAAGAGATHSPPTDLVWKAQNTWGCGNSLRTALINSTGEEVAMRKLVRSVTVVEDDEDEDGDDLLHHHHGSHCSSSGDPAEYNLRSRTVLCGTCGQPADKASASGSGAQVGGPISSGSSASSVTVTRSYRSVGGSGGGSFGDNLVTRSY
UniProt Q96HA1: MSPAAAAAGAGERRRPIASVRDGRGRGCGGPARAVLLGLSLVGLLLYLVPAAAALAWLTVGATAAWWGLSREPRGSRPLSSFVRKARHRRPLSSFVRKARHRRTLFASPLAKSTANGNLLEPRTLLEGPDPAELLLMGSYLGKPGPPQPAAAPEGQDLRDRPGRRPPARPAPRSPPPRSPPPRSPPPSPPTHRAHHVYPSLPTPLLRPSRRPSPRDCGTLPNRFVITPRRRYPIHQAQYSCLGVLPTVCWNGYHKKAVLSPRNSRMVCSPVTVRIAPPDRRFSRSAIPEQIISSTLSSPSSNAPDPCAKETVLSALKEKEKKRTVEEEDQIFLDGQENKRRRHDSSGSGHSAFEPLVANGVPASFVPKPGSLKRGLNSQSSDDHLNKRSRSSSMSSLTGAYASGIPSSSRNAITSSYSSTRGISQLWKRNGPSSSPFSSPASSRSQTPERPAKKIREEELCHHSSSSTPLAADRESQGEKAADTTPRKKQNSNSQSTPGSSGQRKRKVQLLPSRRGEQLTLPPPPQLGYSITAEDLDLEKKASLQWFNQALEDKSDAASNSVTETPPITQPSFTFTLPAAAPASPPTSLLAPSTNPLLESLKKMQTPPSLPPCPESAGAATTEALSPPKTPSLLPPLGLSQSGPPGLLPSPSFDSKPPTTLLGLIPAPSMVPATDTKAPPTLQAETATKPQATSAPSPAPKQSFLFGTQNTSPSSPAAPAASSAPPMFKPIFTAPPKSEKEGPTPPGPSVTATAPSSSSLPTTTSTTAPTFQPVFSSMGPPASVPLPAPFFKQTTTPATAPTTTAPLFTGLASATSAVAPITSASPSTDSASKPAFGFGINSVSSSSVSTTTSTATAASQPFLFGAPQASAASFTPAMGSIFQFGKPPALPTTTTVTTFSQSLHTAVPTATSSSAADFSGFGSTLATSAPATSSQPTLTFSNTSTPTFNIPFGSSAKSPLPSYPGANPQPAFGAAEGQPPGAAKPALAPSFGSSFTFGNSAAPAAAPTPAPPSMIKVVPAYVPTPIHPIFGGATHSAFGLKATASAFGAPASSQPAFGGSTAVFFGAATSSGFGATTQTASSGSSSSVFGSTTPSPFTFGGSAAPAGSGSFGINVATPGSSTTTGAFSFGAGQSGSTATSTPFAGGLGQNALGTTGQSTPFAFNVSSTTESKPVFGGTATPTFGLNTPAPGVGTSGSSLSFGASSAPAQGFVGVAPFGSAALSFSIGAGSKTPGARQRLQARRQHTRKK
UniProt Q8WYP5: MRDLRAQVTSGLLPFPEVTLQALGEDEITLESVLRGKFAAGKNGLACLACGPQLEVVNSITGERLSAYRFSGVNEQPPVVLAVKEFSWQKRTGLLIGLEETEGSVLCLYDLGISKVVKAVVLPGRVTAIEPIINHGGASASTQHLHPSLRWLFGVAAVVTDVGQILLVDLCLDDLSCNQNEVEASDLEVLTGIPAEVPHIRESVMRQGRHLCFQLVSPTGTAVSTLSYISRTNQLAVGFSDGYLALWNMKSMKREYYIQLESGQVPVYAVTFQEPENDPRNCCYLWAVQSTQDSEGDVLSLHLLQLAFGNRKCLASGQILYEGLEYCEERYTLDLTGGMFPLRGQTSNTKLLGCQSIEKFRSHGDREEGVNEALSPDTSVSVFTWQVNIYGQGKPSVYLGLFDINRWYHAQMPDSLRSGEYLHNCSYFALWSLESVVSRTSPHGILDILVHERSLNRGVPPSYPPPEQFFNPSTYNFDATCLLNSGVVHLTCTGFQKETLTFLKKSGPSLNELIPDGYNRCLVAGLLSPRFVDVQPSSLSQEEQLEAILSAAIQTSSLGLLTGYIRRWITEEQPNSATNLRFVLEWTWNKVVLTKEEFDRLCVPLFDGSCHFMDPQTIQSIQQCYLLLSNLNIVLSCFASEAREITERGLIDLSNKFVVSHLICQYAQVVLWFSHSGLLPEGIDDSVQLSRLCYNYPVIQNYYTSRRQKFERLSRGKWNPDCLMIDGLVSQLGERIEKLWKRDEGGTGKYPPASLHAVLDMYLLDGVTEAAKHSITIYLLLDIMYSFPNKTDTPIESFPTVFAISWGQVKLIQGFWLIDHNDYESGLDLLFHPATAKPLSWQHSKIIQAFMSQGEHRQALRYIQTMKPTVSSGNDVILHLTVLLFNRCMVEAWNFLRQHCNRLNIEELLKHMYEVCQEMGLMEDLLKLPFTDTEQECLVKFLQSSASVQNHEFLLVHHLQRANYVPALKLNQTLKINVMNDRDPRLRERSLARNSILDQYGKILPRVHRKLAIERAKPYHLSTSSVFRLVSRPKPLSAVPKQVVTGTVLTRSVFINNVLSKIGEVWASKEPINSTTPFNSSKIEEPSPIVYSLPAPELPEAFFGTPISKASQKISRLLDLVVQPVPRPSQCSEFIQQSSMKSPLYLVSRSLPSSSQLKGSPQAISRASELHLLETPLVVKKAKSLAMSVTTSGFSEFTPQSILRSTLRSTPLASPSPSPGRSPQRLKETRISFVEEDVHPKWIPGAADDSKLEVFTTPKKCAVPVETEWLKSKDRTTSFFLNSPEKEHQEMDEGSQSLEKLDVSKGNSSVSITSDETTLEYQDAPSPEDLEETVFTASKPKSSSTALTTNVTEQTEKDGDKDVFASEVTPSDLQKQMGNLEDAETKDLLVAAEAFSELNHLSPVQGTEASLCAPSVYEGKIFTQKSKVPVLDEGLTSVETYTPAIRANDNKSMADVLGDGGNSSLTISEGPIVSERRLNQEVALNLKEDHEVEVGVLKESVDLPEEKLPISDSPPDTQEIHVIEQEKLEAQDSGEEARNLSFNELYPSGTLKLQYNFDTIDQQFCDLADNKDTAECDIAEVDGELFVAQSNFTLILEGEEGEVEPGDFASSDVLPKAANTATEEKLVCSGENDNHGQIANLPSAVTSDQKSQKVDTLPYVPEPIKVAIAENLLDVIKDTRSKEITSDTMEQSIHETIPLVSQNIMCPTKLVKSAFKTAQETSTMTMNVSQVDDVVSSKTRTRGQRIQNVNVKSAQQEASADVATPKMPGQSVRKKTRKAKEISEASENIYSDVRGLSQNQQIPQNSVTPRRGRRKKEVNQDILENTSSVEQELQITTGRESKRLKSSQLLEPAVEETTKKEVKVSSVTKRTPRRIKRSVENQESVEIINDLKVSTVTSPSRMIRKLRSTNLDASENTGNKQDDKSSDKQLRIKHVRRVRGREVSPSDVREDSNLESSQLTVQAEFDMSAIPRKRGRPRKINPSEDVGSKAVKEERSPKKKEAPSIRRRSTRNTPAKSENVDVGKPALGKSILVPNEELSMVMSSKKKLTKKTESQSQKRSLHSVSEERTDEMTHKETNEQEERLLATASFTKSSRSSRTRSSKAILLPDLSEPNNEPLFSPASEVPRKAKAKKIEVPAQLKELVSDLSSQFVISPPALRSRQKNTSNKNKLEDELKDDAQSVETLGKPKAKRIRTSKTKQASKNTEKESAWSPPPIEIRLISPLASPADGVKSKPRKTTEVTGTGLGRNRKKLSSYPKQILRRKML
UniProt O15131: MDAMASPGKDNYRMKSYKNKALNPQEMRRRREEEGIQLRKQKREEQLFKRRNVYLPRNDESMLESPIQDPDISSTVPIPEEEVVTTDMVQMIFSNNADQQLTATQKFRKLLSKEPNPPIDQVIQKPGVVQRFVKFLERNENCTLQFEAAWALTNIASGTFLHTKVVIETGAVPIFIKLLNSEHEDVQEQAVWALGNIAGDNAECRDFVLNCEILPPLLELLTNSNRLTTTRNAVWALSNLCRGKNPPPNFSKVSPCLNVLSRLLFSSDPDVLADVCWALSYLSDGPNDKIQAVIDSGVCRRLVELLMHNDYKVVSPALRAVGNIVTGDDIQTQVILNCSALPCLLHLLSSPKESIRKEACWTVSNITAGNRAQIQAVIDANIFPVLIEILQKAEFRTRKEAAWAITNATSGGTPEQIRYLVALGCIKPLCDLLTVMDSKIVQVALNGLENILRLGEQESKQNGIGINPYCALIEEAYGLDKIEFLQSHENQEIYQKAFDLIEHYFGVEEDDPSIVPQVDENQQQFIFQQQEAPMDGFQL
UniProt O00629: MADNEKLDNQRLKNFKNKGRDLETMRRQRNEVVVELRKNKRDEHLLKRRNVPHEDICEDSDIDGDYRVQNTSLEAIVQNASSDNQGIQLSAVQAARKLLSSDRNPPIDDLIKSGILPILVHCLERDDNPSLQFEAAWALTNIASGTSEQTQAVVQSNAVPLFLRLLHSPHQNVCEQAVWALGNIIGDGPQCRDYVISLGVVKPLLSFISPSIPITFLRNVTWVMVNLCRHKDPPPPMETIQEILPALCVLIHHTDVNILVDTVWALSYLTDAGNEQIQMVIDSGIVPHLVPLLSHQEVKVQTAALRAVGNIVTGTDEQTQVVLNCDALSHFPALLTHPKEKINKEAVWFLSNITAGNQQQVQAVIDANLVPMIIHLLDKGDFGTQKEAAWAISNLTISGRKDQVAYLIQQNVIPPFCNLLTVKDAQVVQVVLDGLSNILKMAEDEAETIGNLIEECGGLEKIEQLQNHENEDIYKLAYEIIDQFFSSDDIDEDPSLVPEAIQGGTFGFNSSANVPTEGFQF
UniProt P52948, residues 1-880: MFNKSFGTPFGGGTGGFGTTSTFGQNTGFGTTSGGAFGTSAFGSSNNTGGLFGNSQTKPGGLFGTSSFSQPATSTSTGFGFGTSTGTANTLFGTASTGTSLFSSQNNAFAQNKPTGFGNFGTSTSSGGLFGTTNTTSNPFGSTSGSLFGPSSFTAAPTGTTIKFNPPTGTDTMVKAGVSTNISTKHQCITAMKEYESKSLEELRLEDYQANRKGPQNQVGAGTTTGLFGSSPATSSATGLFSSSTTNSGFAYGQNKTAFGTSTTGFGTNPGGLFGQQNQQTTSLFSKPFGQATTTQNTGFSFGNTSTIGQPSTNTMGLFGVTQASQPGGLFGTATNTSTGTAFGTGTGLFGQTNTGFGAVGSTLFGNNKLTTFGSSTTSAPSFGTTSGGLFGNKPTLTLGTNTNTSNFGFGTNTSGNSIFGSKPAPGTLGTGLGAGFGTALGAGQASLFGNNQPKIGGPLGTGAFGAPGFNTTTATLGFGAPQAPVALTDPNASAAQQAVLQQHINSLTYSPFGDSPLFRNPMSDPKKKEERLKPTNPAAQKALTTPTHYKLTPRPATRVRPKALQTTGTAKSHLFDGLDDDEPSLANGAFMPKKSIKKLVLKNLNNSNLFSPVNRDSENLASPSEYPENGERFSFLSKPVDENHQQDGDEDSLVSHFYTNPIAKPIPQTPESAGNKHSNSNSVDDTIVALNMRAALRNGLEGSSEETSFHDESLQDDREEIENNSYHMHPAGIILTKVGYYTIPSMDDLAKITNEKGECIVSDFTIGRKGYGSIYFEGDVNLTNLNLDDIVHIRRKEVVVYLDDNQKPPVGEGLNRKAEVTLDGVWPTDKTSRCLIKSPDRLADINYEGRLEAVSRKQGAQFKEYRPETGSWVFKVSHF

target: Prelamin-A/C, MAC-tagged (human) (UniProt P02545); test: proximity labelling

Molecule | binding
nuclear envelope pore membrane protein POM 121 (from UniProt Q96HA1 1-1249) | binds
ELYS (from UniProt Q8WYP5 1-2266) | binds
importin subunit beta-1 (from UniProt Q14974 1-876) (other; other documents disagree on this pair) | binds
importin subunit alpha IMA4 (from UniProt O00505 1-521) | binds
importin subunit alpha IMA6 (from UniProt O15131 1-539) | binds
Nuclear pore complex protein Nup155 (protein, UniProt O75694 1-1391) MPSSLLGAAMPASTSAAALQEALENAGRLIDRQLQEDRMYPDLSELLMVSAPNNPTVSGMSDMDYPLQGPGLLSVPNLPEISSIRRVPLPPELVEQFGHMQCNCMMGVFPPISRAWLTIDSDIFMWNYEDGGDLAYFDGLSETILAVGLVKPKAGIFQPHVRHLLVLATPVDIVILGLSYANLQTGSGVLNDSLSGGMQLLPDPLYSLPTDNTYLLTITSTDNGRIFLAGKDGCLYEVAYQAEAGWFSQRCRKINHSKSSLSFLVPSLLQFTFSEDDPILQIAIDNSRNILYTRSEKGVIQVYDLGQDGQGMSRVASVSQNAIVSAAGNIARTIDRSVFKPIVQIAVIENSESLDCQLLAVTHAGVRLYFSTCPFRQPLARPNTLTLVHVRLPPGFSASSTVEKPSKVHRALYSKGILLMAASENEDNDILWCVNHDTFPFQKPMMETQMTAGVDGHSWALSAIDELKVDKIITPLNKDHIPITDSPVVVQQHMLPPKKFVLLSAQGSLMFHKLRPVDQLRHLLVSNVGGDGEEIERFFKLHQEDQACATCLILACSTAACDREVSAWATRAFFRYGGEAQMRFPTTLPPPSNVGPILGSPVYSSSPVPSGSPYPNPSFLGTPSHGIQPPAMSTPVCALGNPATQATNMSCVTGPEIVYSGKHNGICIYFSRIMGNIWDASLVVERIFKSGNREITAIESSVPCQLLESVLQELKGLQEFLDRNSQFAGGPLGNPNTTAKVQQRLIGFMRPENGNPQQMQQELQRKFHEAQLSEKISLQAIQQLVRKSYQALALWKLLCEHQFTIIVAELQKELQEQLKITTFKDLVIRDKELTGALIASLINCYIRDNAAVDGISLHLQDICPLLYSTDDAICSKANELLQRSRQVQNKTEKERMLRESLKEYQKISNQVDLSNVCAQYRQVRFYEGVVELSLTAAEKKDPQGLGLHFYKHGEPEEDIVGLQAFQERLNSYKCITDTLQELVNQSKAAPQSPSVPKKPGPPVLSSDPNMLSNEEAGHHFEQMLKLSQRSKDELFSIALYNWLIQVDLADKLLQVASPFLEPHLVRMAKVDQNRVRYMDLLWRYYEKNRSFSNAARVLSRLADMHSTEISLQQRLEYIARAILSAKSSTAISSIAADGEFLHELEEKMEVARIQLQIQETLQRQYSHHSSVQDAVSQLDSELMDITKLYGEFADPFKLAECKLAIIHCAGYSDPILVQTLWQDIIEKELSDSVTLSSSDRMHALSLKIVLLGKIYAGTPRFFPLDFIVQFLEQQVCTLNWDVGFVIQTMNEIGVPLPRLLEVYDQLFKSRDPFWNRMKKPLHLLDCIHVLLIRYVENPSQVLNCERRRFTNLCLDAVCGYLVELQSMSSSVAVQAITGNFKSLQAKLERLH | binds
Nuclear pore complex protein Nup107 (protein, UniProt P57740 1-925) MDRSGFGEISSPVIREAEVTRTARKQSAQKRVLLQASQDENFGNTTPRNQVIPRTPSSFRQPFTPTSRSLLRQPDISCILGTGGKSPRLTQSSGFFGNLSMVTNLDDSNWAAAFSSQRSGLFTNTEPHSITEDVTISAVMLREDDPGEAASMSMFSDFLQSFLKHSSSTVFDLVEEYENICGSQVNILSKIVSRATPGLQKFSKTASMLWLLQQEMVTWRLLASLYRDRIQSALEEESVFAVTAVNASEKTVVEALFQRDSLVRQSQLVVDWLESIAKDEIGEFSDNIEFYAKSVYWENTLHTLKQRQLTSYVGSVRPLVTELDPDAPIRQKMPLDDLDREDEVRLLKYLFTLIRAGMTEEAQRLCKRCGQAWRAATLEGWKLYHDPNVNGGTELEPVEGNPYRRIWKISCWRMAEDELFNRYERAIYAALSGNLKQLLPVCDTWEDTVWAYFRVMVDSLVEQEIQTSVATLDETEELPREYLGANWTLEKVFEELQATDKKRVLEENQEHYHIVQKFLILGDIDGLMDEFSKWLSKSRNNLPGHLLRFMTHLILFFRTLGLQTKEEVSIEVLKTYIQLLIREKHTNLIAFYTCHLPQDLAVAQYALFLESVTEFEQRHHCLELAKEADLDVATITKTVVENIRKKDNGEFSHHDLAPALDTGTTEEDRLKIDVIDWLVFDPAQRAEALKQGNAIMRKFLASKKHEAAKEVFVKIPQDSIAEIYNQCEEQGMESPLPAEDDNAIREHLCIRAYLEAHETFNEWFKHMNSVPQKPALIPQPTFTEKVAHEHKEKKYEMDFGIWKGHLDALTADVKEKMYNVLLFVDGGWMVDVREDAKEDHERTHQMVLLRKLCLPMLCFLLHTILHSTGQYQECLQLADMVSSERHKLYLVFSKEELRKLLQKLRESSLMLLDQGLDPLGYEIQL | binds
Nuclear pore complex protein Nup133 (protein, UniProt Q8WUM0 1-1156) MFPAAPSPRTPGTGSRRGPLAGLGPGSTPRTASRKGLPLGSAVSSPVLFSPVGRRSSLSSRGTPTRMFPHHSITESVNYDVKTFGSSLPVKVMEALTLAEVDDQLTINIDEGGWACLVCKEKLIIWKIALSPITKLSVCKELQLPPSDFHWSADLVALSYSSPSGEAHSTQAVAVMVATREGSIRYWPSLAGEDTYTEAFVDSGGDKTYSFLTAVQGGSFILSSSGSQLIRLIPESSGKIHQHILPQGQGMLSGIGRKVSSLFGILSPSSDLTLSSVLWDRERSSFYSLTSSNISKWELDDSSEKHAYSWDINRALKENITDAIWGSESNYEAIKEGVNIRYLDLKQNCDGLVILAAAWHSADNPCLIYYSLITIEDNGCQMSDAVTVEVTQYNPPFQSEDLILCQLTVPNFSNQTAYLYNESAVYVCSTGTGKFSLPQEKIVFNAQGDSVLGAGACGGVPIIFSRNSGLVSITSRENVSILAEDLEGSLASSVAGPNSESMIFETTTKNETIAQEDKIKLLKAAFLQYCRKDLGHAQMVVDELFSSHSDLDSDSELDRAVTQISVDLMDDYPASDPRWAESVPEEAPGFSNTSLIILHQLEDKMKAHSFLMDFIHQVGLFGRLGSFPVRGTPMATRLLLCEHAEKLSAAIVLKNHHSRLSDLVNTAILIALNKREYEIPSNLTPADVFFREVSQVDTICECLLEHEEQVLRDAPMDSIEWAEVVINVNNILKDMLQAASHYRQNRNSLYRREESLEKEPEYVPWTATSGPGGIRTVIIRQHEIVLKVAYPQADSNLRNIVTEQLVALIDCFLDGYVSQLKSVDKSSNRERYDNLEMEYLQKRSDLLSPLLSLGQYLWAASLAEKYCDFDILVQMCEQTDNQSRLQRYMTQFADQNFSDFLFRWYLEKGKRGKLLSQPISQHGQLANFLQAHEHLSWLHEINSQELEKAHATLLGLANMETRYFAKKKTLLGLSKLAALASDFSEDMLQEKIEEMAEQERFLLHQETLPEQLLAEKQLNLSAMPVLTAPQLIGLYICEENRRANEYDFKKALDLLEYIDEEEDININDLKLEILCKALQRDNWSSSDGKDDPIEVSKDSIFVKILQKLLKDGIQLSEYLPEVKDLLQADQLGSLKSNPYFEFVLKANYEYYVQGQI | binds

Continued, values first:

binding | Molecule
binds | importin subunit alpha IMA3 (from UniProt O00629 1-521)
binds | NUP98 (from UniProt P52948 1-880)
binds | nuclear envelope pore membrane protein POM 121C (from UniProt A8CG34 1-1229)
binds | Nuclear pore complex protein Nup153 (from UniProt P49790 1-1475)

No constants are given. Whether binding was seen depends on the method and setting. In cells and extracts the contact can be indirect. Here binding means that the protein was enriched with, or labelled near, the bait; the list need not be complete.
